Measurements reported in PubChem BioAssay AID652243 (Drosophila RNAi Screening Center, 2013).

- Purpose: 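Fly genes required for human androgen receptor driven transcription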 (primary screen)
- System: Drosophila S2R+ cells
- Reagents: long dsRNA against Drosophila genes
- Timing: 72 h (48 h, then 24 h hormone)
- Treatment: synthetic androgen R1881 at 10 nM for 24 h
- Read-out: 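Firefly light from an androgen-responsive reporter and Renilla control light per well, raw and unnormalised, for each of two replicates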
- Reading the numbers: firefly reporter light: higher = more light from androgen-responsive reporter; Renilla control light: higher = more constitutive control signal (cell number, transfection)
- Rule for the call: 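Across duplicate plates, a knock-down whose log firefly/Renilla ratio shifted a set fold down or up from the GFP/LacZ control mean was a hit; the downward cut appears as both 1.5 and 3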
- Meaning of the calls: active = hit: reporter lowered or raised; inactive = no hit
The deposit covers about 24,000 reagents; below is a random part of those that have a named target and a result. In the full data, 246 (1%) got an active call. 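Plates not normalised; calls are printed but the firefly/Renilla ratio behind them is not deposited; fold cut for lowering reported inconsistently.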 The raw values are shown without normalisation. The numbers tell different reagents against one gene apart. The record does not give: the amount of reagent.

Silencing of Pvf3 (PDGF- and VEGF-related factor 3) #1 came out at: firefly reporter light, replicate 1 = 2.23e5; firefly reporter light, replicate 2 = 1.78e5; Renilla control light, replicate 1 = 2.68e6; Renilla control light, replicate 2 = 1.29e6; inactive.
Against Pvf3 (PDGF- and VEGF-related factor 3) #2 the deposit lists firefly reporter light, replicate 1 = 2.09e5; firefly reporter light, replicate 2 = 1.88e5; Renilla control light, replicate 1 = 1.83e6; Renilla control light, replicate 2 = 1.65e6; inactive.
After knock-down of Pvf3 (PDGF- and VEGF-related factor 3) #3, the screen gave firefly reporter light, replicate 1 = 1.04e5; firefly reporter light, replicate 2 = 1.04e5; Renilla control light, replicate 1 = 8.28e5; Renilla control light, replicate 2 = 7.14e5; inactive.
Against Pvf3 (PDGF- and VEGF-related factor 3) #4, the entry reads firefly reporter light, replicate 1 = 1.83e5; firefly reporter light, replicate 2 = 87750; Renilla control light, replicate 1 = 1.58e6; Renilla control light, replicate 2 = 8.99e5; inactive.
Pvf3 (PDGF- and VEGF-related factor 3) #5 gave firefly reporter light, replicate 1 = 5.64e5; firefly reporter light, replicate 2 = 4.16e5; Renilla control light, replicate 1 = 6.26e5; Renilla control light, replicate 2 = 5.31e5; inactive.
Silencing of Pvf3 (PDGF- and VEGF-related factor 3) #6 came out at: firefly reporter light, replicate 1 = 2.98e5; firefly reporter light, replicate 2 = 3.53e5; Renilla control light, replicate 1 = 9.53e5; Renilla control light, replicate 2 = 8.39e5; inactive.

2 entries from above, reformatted.
target	reagent	firefly reporter light, replicate 1	firefly reporter light, replicate 2	Renilla control light, replicate 1	Renilla control light, replicate 2	call
Pvf3 (PDGF- and VEGF-related factor 3)	4	1.83e5	87750	1.58e6	8.99e5	inactive
Pvf3 (PDGF- and VEGF-related factor 3)	5	5.64e5	4.16e5	6.26e5	5.31e5	inactive

Continued.
For CG30178, the values are firefly reporter light, replicate 1 = 8.10e5; firefly reporter light, replicate 2 = 5.44e5; Renilla control light, replicate 1 = 1.76e6; Renilla control light, replicate 2 = 1.89e6; inactive.
Against CG1791 #1, the values are firefly reporter light, replicate 1 = 1.48e5; firefly reporter light, replicate 2 = 1.62e5; Renilla control light, replicate 1 = 8.82e5; Renilla control light, replicate 2 = 1.02e6; inactive.
Depletion of CG1791 #2 resulted in: firefly reporter light, replicate 1 = 4.77e5; firefly reporter light, replicate 2 = 5.41e5; Renilla control light, replicate 1 = 9.88e5; Renilla control light, replicate 2 = 1.24e6; inactive.
Knock-down of vap (vacuolar peduncle) gave: firefly reporter light, replicate 1 = 61883; firefly reporter light, replicate 2 = 1.23e5; Renilla control light, replicate 1 = 5.65e5; Renilla control light, replicate 2 = 7.81e5; inactive.
For CG8508, the entry reads firefly reporter light, replicate 1 = 54363; firefly reporter light, replicate 2 = 1.02e5; Renilla control light, replicate 1 = 6.39e5; Renilla control light, replicate 2 = 7.51e5; inactive.
Silencing of mthl2 (methuselah-like 2) #1 resulted in: firefly reporter light, replicate 1 = 1.40e5; firefly reporter light, replicate 2 = 1.87e5; Renilla control light, replicate 1 = 1.48e6; Renilla control light, replicate 2 = 1.84e6; inactive.
mthl2 (methuselah-like 2) #2 scored firefly reporter light, replicate 1 = 4.87e5; firefly reporter light, replicate 2 = 3.27e5; Renilla control light, replicate 1 = 8.67e5; Renilla control light, replicate 2 = 5.82e5; inactive.
